The list shows a part of the results. Residues, ends and D or L forms follow the SMILES beside them. *: point of attachment. Cbz = O=C(OCc1ccccc1)*
Tests used:
Assay in all cases: log2 fold change, soluble protein after heating vs DMSO (PISA); higher = thermal stabilisation; K562 cells, 10 uM, 30 min; active = over 0.2 and 3.5 SD of the protein, either way, in both replicates (recomputed)
erlotinib = compound: C#Cc1cccc(Nc2ncnc3cc(OCCOC)c(OCCOC)cc23)c1 [erlotinib]
Summary of the method: (§1)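 K562 cells at 2×10^6 cells/mL were treated for 30 min with 10 μM compound, and aliquots were heated for 3 min over 48°C-58°C before pooling. Extraction used PBS with 0.5% NP-40 at 4°C, and soluble protein was the supernatant after 21,000xg for 90 min, measured by TMTpro 16plex LC-MS/MS with channel sums equalised. Thermal stability values, relative to control samples and from duplicates, are log2 fold changes.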

Amino acid sequences for entries named in this document (tags omitted). A change or cut given only in a name is not applied to a line headed by its entry.
UniProt Q96C19: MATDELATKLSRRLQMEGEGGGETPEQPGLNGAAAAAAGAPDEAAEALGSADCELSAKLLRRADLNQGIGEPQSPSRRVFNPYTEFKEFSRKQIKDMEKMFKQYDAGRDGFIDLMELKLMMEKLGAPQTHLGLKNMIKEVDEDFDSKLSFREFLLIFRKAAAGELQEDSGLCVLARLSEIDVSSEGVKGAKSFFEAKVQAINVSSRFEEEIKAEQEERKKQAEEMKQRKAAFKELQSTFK
UniProt Q8TE02: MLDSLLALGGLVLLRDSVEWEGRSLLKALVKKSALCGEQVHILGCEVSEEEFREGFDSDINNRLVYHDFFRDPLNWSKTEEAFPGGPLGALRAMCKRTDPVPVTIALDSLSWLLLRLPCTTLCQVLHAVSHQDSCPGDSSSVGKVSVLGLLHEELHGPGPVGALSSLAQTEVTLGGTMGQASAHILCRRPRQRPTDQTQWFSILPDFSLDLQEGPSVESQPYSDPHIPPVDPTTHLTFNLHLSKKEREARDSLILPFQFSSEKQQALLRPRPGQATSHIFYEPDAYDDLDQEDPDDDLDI
UniProt O95163: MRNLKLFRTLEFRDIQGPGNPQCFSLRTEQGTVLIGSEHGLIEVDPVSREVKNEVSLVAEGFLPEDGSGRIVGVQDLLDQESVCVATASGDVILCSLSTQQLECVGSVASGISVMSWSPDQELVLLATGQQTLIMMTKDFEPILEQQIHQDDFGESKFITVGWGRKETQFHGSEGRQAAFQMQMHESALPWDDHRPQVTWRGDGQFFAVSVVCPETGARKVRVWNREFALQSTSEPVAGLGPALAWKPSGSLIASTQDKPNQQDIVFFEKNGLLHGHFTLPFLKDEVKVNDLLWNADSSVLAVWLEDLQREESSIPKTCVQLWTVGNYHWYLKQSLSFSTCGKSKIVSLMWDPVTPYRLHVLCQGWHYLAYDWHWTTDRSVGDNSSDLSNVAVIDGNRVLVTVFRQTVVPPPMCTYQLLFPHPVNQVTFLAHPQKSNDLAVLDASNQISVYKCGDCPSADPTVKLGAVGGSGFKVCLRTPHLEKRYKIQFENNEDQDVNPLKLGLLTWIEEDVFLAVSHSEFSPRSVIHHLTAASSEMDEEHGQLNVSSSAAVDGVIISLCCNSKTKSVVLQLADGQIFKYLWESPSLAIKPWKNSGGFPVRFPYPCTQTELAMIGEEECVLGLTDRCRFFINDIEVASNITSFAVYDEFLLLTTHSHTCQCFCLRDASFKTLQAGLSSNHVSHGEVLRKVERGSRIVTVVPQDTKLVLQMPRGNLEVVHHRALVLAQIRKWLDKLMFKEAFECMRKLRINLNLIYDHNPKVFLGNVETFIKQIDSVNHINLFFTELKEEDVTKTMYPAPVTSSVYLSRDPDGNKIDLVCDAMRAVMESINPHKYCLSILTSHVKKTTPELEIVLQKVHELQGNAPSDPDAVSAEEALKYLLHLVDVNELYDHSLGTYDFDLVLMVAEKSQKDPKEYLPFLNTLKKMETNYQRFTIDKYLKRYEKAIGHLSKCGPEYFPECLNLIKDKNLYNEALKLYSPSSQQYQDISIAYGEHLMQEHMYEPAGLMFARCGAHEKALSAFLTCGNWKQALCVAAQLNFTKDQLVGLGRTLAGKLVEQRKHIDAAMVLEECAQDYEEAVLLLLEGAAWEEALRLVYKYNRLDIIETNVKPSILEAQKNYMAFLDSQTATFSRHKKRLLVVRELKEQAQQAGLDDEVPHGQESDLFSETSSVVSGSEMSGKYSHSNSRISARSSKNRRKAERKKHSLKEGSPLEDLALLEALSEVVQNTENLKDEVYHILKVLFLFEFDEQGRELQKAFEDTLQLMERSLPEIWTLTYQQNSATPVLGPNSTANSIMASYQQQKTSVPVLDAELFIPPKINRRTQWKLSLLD
UniProt Q9H9T3: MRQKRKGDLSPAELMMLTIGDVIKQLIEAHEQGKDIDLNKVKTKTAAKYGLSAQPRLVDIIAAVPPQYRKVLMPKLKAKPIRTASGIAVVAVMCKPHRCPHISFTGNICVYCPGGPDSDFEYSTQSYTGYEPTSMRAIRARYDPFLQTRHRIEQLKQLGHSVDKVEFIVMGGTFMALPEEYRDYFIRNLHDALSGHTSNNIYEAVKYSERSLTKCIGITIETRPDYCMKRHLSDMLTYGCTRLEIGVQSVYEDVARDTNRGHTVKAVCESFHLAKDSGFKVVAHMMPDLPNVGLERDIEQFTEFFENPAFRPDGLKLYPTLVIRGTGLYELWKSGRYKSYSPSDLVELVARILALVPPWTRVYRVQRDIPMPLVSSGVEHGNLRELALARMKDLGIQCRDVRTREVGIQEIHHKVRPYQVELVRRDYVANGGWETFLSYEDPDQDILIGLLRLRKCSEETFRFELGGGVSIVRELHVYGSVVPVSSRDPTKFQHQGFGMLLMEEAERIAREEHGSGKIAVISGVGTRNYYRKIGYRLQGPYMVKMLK
UniProt Q9UHY7: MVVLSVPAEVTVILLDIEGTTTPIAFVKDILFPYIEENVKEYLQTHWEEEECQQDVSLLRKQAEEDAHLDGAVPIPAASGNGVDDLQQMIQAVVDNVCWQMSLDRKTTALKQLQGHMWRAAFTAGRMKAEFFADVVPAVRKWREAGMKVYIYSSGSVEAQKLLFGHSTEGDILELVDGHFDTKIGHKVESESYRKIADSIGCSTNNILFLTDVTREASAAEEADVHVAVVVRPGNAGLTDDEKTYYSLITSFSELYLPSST
UniProt Q8N9N8: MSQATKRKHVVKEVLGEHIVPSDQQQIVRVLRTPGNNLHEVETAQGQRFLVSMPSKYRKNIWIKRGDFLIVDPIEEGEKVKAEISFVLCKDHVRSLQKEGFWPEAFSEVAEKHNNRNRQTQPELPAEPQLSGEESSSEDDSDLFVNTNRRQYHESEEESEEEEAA
UniProt Q9P2K8: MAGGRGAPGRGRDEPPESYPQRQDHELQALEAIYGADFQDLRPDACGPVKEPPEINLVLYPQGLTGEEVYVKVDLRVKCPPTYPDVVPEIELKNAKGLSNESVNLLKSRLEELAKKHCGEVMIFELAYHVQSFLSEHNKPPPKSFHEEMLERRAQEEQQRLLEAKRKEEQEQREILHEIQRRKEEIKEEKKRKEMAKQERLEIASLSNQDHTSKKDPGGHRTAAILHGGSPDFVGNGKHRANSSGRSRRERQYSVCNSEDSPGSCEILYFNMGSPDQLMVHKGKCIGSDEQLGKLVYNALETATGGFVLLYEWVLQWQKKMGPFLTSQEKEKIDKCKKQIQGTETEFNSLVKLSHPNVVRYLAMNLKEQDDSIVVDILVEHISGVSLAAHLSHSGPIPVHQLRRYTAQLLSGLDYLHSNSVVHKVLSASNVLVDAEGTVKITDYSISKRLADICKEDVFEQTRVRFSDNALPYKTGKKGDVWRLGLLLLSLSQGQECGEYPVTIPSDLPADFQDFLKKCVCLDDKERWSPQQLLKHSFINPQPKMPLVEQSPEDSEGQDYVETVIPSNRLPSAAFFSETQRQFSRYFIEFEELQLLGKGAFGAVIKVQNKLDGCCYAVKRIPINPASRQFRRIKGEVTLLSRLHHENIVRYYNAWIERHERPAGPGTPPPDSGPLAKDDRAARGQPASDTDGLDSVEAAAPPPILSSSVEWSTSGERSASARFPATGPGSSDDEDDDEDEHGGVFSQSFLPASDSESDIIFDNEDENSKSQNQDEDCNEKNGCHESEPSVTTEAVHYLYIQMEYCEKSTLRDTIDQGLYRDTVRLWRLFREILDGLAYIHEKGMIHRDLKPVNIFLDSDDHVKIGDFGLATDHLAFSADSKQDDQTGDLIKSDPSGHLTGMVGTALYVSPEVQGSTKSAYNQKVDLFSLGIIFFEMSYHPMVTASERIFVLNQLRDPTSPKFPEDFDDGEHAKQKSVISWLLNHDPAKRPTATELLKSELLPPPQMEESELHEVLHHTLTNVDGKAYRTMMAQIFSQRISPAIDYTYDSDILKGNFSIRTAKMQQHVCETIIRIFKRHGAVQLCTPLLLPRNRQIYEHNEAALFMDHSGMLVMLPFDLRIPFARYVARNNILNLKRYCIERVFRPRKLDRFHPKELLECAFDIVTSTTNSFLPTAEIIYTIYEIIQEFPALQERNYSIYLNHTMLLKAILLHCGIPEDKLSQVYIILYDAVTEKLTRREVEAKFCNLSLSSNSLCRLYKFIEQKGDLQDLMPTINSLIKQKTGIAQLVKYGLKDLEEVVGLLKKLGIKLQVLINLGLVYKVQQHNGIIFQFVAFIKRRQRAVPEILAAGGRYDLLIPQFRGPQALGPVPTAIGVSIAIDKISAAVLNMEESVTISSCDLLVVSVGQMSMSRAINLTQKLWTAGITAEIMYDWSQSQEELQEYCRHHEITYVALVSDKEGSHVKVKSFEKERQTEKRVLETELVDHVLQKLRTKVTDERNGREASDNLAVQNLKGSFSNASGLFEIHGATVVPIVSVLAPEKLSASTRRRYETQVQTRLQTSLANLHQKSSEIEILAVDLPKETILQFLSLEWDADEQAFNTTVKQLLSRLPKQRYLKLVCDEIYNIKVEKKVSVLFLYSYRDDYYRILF
UniProt O94919: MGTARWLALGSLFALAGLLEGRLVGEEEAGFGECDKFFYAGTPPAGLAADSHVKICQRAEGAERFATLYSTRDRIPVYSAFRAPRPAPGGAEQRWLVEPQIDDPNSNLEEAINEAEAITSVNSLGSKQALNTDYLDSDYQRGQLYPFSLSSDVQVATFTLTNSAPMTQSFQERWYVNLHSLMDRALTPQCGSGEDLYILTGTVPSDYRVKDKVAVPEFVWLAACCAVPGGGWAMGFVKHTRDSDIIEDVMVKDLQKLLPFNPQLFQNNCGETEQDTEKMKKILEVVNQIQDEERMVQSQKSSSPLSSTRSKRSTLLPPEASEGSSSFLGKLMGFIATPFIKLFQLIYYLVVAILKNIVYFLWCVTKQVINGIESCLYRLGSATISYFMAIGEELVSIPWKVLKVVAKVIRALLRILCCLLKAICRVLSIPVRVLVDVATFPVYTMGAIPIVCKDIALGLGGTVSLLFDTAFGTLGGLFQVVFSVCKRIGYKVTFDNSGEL
UniProt Q99613, whole entry, looked up: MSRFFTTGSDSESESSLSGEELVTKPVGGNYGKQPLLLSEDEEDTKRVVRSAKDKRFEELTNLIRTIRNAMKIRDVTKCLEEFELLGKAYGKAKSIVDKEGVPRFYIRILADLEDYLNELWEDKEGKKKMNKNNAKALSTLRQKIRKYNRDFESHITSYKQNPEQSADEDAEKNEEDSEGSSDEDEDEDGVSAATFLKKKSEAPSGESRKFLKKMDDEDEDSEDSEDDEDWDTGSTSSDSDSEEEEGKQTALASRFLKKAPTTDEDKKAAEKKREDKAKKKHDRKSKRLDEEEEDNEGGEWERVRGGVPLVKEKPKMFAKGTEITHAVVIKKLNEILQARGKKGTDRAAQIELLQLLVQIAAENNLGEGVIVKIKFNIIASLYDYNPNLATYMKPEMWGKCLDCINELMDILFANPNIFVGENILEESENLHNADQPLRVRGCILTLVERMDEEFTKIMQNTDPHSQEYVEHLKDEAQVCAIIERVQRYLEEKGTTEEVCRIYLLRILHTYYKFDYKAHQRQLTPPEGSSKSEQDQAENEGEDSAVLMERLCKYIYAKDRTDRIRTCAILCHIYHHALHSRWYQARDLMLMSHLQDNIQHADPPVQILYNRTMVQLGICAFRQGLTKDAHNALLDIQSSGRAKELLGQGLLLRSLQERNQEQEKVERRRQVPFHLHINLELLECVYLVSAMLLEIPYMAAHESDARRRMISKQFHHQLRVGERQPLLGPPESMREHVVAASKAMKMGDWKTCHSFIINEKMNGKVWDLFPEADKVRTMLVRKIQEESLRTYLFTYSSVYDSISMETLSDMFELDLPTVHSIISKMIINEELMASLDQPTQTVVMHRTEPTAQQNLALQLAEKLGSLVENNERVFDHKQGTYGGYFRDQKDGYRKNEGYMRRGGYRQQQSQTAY
UniProt P38919, whole entry, looked up: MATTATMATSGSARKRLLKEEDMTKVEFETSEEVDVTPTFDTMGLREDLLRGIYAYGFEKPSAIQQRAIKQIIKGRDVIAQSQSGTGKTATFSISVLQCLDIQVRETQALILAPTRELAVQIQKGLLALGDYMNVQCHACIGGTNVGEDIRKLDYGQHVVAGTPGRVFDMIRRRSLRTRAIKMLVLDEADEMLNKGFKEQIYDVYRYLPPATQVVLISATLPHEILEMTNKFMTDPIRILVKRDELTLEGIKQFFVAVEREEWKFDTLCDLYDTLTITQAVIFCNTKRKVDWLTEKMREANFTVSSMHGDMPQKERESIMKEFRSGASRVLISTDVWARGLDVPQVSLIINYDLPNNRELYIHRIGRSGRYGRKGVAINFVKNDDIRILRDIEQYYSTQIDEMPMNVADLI

[1] = compound: C/C(=N\NC(=O)C1=CC(=CC=C1)S(=O)(=O)N2CCOCC2)/C3=C(C=CC(=C3)Cl)O
Summary of the method: as §1

[2] = compound: C1=CC(=C(C=C1Cl)C2=NC3=NC=CN=C3C(=N2)NC4=CC=NC=C4)F
Summary of the method: as §1

[3] = compound: C1=CC(=CC=C1C2=NC3=C(N2)C=C(C=C3)C(=O)N)OC4=CC=C(C=C4)Cl
Summary of the method: as §1

[4] = compound: C1=CC2=C(C=CC(=C2)/C=C\3/C(=O)NC(=NCC4=CC=CS4)S3)N=C1
Summary of the method: as §1

[5] = compound: C1=CC2=NC=CN=C2C=C1/C=C/3\C(=O)NC(=O)S3
Summary of the method: as §1

[6] = compound: C1=CC=C(C=C1)C2=NC(=C(N2)C3=CC=NC=C3)C4=CC(=C(C=C4)Cl)O
Summary of the method: as §1

[7] = compound: C1=CC=C2C(=C1)C3=NNC4=CC=CC(=C43)C2=O
Summary of the method: as §1

[8] = compound: C1CCN(C1)C(=O)NC2=CC=CC(=C2)NC3=NC=C(C(=N3)NCCC4=CN=CN4)Br
Summary of the method: as §1

[9] = compound: C1CN(CCC1(CC2=CC=C(C=C2)Cl)N)C3=NC=NC4=C3C=CN4
Summary of the method: as §1

IRAK-1-4 Inhibitor I = compound: C1COCCN1CCN2C3=CC=CC=C3N=C2NC(=O)C4=CC(=CC=C4)[N+](=O)[O-] [IRAK-1-4 Inhibitor I]
Summary of the method: as §1

ibrutinib = compound: C=CC(=O)N1CCC[C@@H](n2nc(-c3ccc(Oc4ccccc4)cc3)c3c(N)ncnc32)C1 [ibrutinib]
Summary of the method: as §1

[10] = compound: CC(=O)c1cnc2ccc(-c3cc(Cl)c(O)c(Cl)c3)nc2c1N[C@H]1CC[C@H](CN(C)C)CC1
Summary of the method: as §1

ralimetinib = compound: CC(C)(C)Cn1c(N)nc2ccc(-c3[nH]c(C(C)(C)C)nc3-c3ccc(F)cc3)nc21 [ralimetinib]
Summary of the method: as §1

[11] = compound: CC(C)(O)CC(=O)NCCn1ccc2ncnc(Nc3ccc(Oc4cccc(C(F)(F)F)c4)c(Cl)c3)c21
Summary of the method: as §1

[12] = compound: CC(C)C1=C2N=C(C=C(N2N=C1)NCC3=CC=CC=C3)NCCCCCCN
Summary of the method: as §1

[13] = compound: CC(C)C[C@@H](C=O)NC(=O)[C@H](CC(C)C)NC(=O)[C@H](CC(C)C)NC(=O)OCc1ccccc1
Summary of the method: as §1

pinometostat = compound: CC(C)N(C[C@H]1O[C@@H](n2cnc3c(N)ncnc32)[C@H](O)[C@@H]1O)[C@H]1C[C@@H](CCc2nc3cc(C(C)(C)C)ccc3[nH]2)C1 [pinometostat]
Summary of the method: as §1

[14] = compound: CC1=C(C(CC(=O)N1)C2=CC=C(C=C2)C(F)(F)F)C(=O)NC3=C(C=C4C(=C3)C=NN4)F
Summary of the method: as §1

[15] = compound: CC1=C(C2=C(C=C1)C(=O)C3=CC=CC=C3N2CCCN)C
Summary of the method: as §1

Measured: log2 fold change

EFHD2 (UniProt Q96C19)
inactive: erlotinib -0.028 | [1] 0.033 | [2] 0.038 | [3] -0.041 | [4] 0.026 | [5] 0.033 | [6] -0.059 | [7] 0.104 | [8] 0.069 | [9] -0.196 | IRAK-1-4 Inhibitor I 0 | ibrutinib -0.06 | [10] 0.059 | ralimetinib -0.089 | [11] -0.079 | [12] -0.179 | [13] -0.027 | pinometostat -0.012 | [14] -0.013 | [15] -0.161

EIF3F (UniProt O00303)
inactive: erlotinib 0.015 | [1] 0.096 | [2] 0.004 | [3] 0.006 | [4] 0.028 | [5] 0.034 | [6] 0.103 | [7] 0.006 | [8] -0.01 | [9] -0.108 | IRAK-1-4 Inhibitor I -0.118 | ibrutinib -0.051 | [10] 0.023 | ralimetinib 0.068 | [11] -0.038 | [12] -0.131 | [13] -0.042 | pinometostat 0.047 | [14] 0 | [15] -0.007

ELP5 isoform 4 (UniProt Q8TE02)
inactive: erlotinib -0.047 | [1] 0.03 | [2] -0.01 | [3] 0.017 | [4] 0.053 | [5] -0.008 | [6] -0.039 | [7] -0.03 | [8] -0.02 | [9] 0 | IRAK-1-4 Inhibitor I 0.044 | ibrutinib 0.02 | [10] -0.036 | ralimetinib -0.011 | [11] -0.018 | [12] 0.097 | [13] 0.059 | pinometostat -0.044 | [14] -0.012 | [15] 0.045

EMC2 (UniProt Q15006)
inactive: erlotinib -0.045 | [1] 0.06 | [2] 0.046 | [3] -0.01 | [4] 0.034 | [5] 0.019 | [6] 0.085 | [7] 0.026 | [8] -0.03 | [9] 0.035 | IRAK-1-4 Inhibitor I 0.017 | ibrutinib -0.034 | [10] -0.016 | ralimetinib 0.029 | [11] -0.007 | [12] -0.022 | [13] -0.065 | pinometostat -0.067 | [14] -0.003 | [15] 0.016

ELP1 (UniProt O95163)
inactive: erlotinib 0.026 | [1] -0.013 | [2] 0.044 | [3] -0.025 | [4] 0.032 | [5] 0 | [6] 0.012 | [7] 0.037 | [8] -0.018 | [9] 0.03 | IRAK-1-4 Inhibitor I -0.003 | ibrutinib 0.016 | [10] -0.004 | ralimetinib -0.054 | [11] -0.005 | [12] 0.043 | [13] 0 | pinometostat -0.007 | [14] 0.01 | [15] 0.015

ELOF1 (UniProt P60002)
inactive: erlotinib -0.072 | [1] 0.025 | [2] 0.026 | [3] 0.051 | [4] -0.045 | [5] -0.015 | [6] 0.062 | [7] -0.257 | [8] -0.153 | [9] -0.054 | IRAK-1-4 Inhibitor I 0 | ibrutinib 0.036 | [10] 0.325 | ralimetinib 0.071 | [11] -0.067 | [12] 0.071 | [13] -0.219 | pinometostat -0.127 | [14] 0.088 | [15] -0.018

ELP3 (UniProt Q9H9T3)
inactive: erlotinib -0.004 | [1] -0.044 | [2] 0.028 | [3] 0.008 | [4] 0.021 | [5] -0.001 | [6] 0.034 | [7] 0.003 | [8] -0.014 | [9] 0.01 | IRAK-1-4 Inhibitor I 0.002 | ibrutinib -0.001 | [10] -0.012 | ralimetinib -0.011 | [11] -0.09 | [12] 0.017 | [13] -0.047 | pinometostat -0.007 | [14] 0.05 | [15] 0.026

ENOPH1 (UniProt Q9UHY7)
inactive: erlotinib 0.048 | [1] 0.105 | [2] 0.103 | [3] 0.055 | [4] 0.015 | [5] -0.011 | [6] 0.017 | [7] 0.027 | [8] -0.075 | [9] -0.266 | IRAK-1-4 Inhibitor I -0.096 | ibrutinib -0.025 | [10] -0.068 | ralimetinib 0.04 | [11] -0.143 | [12] -0.329 | [13] -0.031 | pinometostat 0.058 | [14] -0.041 | [15] -0.2

EIF1AD (UniProt Q8N9N8)
inactive: erlotinib 0.004 | [1] -0.016 | [2] 0.016 | [3] -0.009 | [4] 0.03 | [5] 0.047 | [6] -0.05 | [7] -0.011 | [8] -0.02 | [9] 0.027 | IRAK-1-4 Inhibitor I 0.039 | ibrutinib -0.003 | [10] -0.002 | ralimetinib -0.077 | [11] -0.015 | [12] 0.012 | [13] 0.044 | pinometostat -0.006 | [14] 0.009 | [15] -0.055

EIF4A2 isoform 2 (UniProt Q14240)
inactive: erlotinib -0.001 | [1] 0.091 | [2] 0.029 | [3] -0.029 | [4] 0.027 | [5] 0.008 | [6] 0.033 | [7] -0.007 | [8] -0.022 | [9] 0.06 | IRAK-1-4 Inhibitor I -0.001 | ibrutinib -0.039 | [10] -0.097 | ralimetinib -0.033 | [11] -0.036 | [12] -0.042 | [13] -0.008 | pinometostat -0.019 | [14] 0.009 | [15] 0.023

2 entries drawn at random from the list so far, as already listed:
EMC2 (UniProt Q15006)
inactive: erlotinib -0.045 | [1] 0.06 | [2] 0.046 | [3] -0.01 | [4] 0.034 | [5] 0.019 | [6] 0.085 | [7] 0.026 | [8] -0.03 | [9] 0.035 | IRAK-1-4 Inhibitor I 0.017 | ibrutinib -0.034 | [10] -0.016 | ralimetinib 0.029 | [11] -0.007 | [12] -0.022 | [13] -0.065 | pinometostat -0.067 | [14] -0.003 | [15] 0.016

ELP5 isoform 4 (UniProt Q8TE02)
inactive: erlotinib -0.047 | [1] 0.03 | [2] -0.01 | [3] 0.017 | [4] 0.053 | [5] -0.008 | [6] -0.039 | [7] -0.03 | [8] -0.02 | [9] 0 | IRAK-1-4 Inhibitor I 0.044 | ibrutinib 0.02 | [10] -0.036 | ralimetinib -0.011 | [11] -0.018 | [12] 0.097 | [13] 0.059 | pinometostat -0.044 | [14] -0.012 | [15] 0.045

Further records:

EIF2AK4 (UniProt Q9P2K8)
inactive: erlotinib 0.015 | [1] -0.041 | [2] -0.061 | [3] -0.063 | [4] 0.017 | [5] 0.001 | [6] -0.015 | [7] -0.202 | [8] -0.019 | [9] 0 | IRAK-1-4 Inhibitor I -0.101 | ibrutinib -0.004 | [10] -0.231 | ralimetinib 0.132 | [11] -0.025 | [12] -0.134 | [13] 0.016 | pinometostat 0.106 | [14] 0.045 | [15] -0.139

ENDOD1 (UniProt O94919)
inactive: erlotinib -0.037 | [1] -0.014 | [2] -0.067 | [3] 0.003 | [4] -0.019 | [5] 0.028 | [6] 0.016 | [7] 0.021 | [8] 0.036 | [9] 0.038 | IRAK-1-4 Inhibitor I 0.001 | ibrutinib -0.004 | [10] -0.02 | ralimetinib 0.043 | [11] 0.048 | [12] 0.043 | [13] -0.039 | pinometostat -0.005 | [14] -0.029 | [15] 0.033

ELP4 isoform 3 (UniProt Q96EB1)
inactive: erlotinib -0.002 | [1] -0.025 | [2] 0.028 | [3] 0.031 | [4] -0.052 | [5] 0.032 | [6] 0.02 | [7] 0.002 | [8] -0.001 | [9] 0.04 | IRAK-1-4 Inhibitor I 0.038 | ibrutinib 0.037 | [10] 0.036 | ralimetinib -0.001 | [11] 0.004 | [12] 0.068 | [13] 0 | pinometostat -0.02 | [14] -0.008 | [15] 0.003

EIF3C (UniProt Q99613)
inactive: erlotinib 0.056 | [1] 0.044 | [2] -0.057 | [3] -0.024 | [4] 0.026 | [5] 0.007 | [6] -0.047 | [7] -0.025 | [8] -0.005 | [9] -0.147 | IRAK-1-4 Inhibitor I -0.195 | ibrutinib -0.056 | [10] 0.045 | ralimetinib 0.051 | [11] -0.007 | [12] -0.245 | [13] 0.077 | pinometostat 0.174 | [14] 0.053 | [15] -0.077

EIF4A3 (UniProt P38919)
inactive: erlotinib -0.026 | [1] 0.01 | [2] 0.039 | [3] -0.003 | [4] 0.021 | [5] -0.012 | [6] -0.012 | [7] -0.004 | [8] -0.027 | [9] 0.001 | IRAK-1-4 Inhibitor I 0 | ibrutinib -0.017 | [10] 0.002 | ralimetinib -0.046 | [11] -0.017 | [12] 0.075 | [13] 0.003 | pinometostat 0.005 | [14] -0.021 | [15] 0.138

EIF5B (UniProt O60841)
inactive: erlotinib -0.01 | [1] 0.032 | [2] -0.089 | [3] -0.024 | [4] 0.087 | [5] -0.075 | [6] 0.059 | [7] 0.062 | [8] -0.025 | [9] -0.094 | IRAK-1-4 Inhibitor I -0.056 | ibrutinib -0.032 | [10] -0.048 | ralimetinib 0.125 | [11] 0.016 | [12] -0.013 | [13] 0.079 | pinometostat 0.145 | [14] -0.031 | [15] -0.086
